{
  "sequences": {"note": "Chains of the proteins cited; added tags and fusions are not shown.", "UniProt Q8CHG3": "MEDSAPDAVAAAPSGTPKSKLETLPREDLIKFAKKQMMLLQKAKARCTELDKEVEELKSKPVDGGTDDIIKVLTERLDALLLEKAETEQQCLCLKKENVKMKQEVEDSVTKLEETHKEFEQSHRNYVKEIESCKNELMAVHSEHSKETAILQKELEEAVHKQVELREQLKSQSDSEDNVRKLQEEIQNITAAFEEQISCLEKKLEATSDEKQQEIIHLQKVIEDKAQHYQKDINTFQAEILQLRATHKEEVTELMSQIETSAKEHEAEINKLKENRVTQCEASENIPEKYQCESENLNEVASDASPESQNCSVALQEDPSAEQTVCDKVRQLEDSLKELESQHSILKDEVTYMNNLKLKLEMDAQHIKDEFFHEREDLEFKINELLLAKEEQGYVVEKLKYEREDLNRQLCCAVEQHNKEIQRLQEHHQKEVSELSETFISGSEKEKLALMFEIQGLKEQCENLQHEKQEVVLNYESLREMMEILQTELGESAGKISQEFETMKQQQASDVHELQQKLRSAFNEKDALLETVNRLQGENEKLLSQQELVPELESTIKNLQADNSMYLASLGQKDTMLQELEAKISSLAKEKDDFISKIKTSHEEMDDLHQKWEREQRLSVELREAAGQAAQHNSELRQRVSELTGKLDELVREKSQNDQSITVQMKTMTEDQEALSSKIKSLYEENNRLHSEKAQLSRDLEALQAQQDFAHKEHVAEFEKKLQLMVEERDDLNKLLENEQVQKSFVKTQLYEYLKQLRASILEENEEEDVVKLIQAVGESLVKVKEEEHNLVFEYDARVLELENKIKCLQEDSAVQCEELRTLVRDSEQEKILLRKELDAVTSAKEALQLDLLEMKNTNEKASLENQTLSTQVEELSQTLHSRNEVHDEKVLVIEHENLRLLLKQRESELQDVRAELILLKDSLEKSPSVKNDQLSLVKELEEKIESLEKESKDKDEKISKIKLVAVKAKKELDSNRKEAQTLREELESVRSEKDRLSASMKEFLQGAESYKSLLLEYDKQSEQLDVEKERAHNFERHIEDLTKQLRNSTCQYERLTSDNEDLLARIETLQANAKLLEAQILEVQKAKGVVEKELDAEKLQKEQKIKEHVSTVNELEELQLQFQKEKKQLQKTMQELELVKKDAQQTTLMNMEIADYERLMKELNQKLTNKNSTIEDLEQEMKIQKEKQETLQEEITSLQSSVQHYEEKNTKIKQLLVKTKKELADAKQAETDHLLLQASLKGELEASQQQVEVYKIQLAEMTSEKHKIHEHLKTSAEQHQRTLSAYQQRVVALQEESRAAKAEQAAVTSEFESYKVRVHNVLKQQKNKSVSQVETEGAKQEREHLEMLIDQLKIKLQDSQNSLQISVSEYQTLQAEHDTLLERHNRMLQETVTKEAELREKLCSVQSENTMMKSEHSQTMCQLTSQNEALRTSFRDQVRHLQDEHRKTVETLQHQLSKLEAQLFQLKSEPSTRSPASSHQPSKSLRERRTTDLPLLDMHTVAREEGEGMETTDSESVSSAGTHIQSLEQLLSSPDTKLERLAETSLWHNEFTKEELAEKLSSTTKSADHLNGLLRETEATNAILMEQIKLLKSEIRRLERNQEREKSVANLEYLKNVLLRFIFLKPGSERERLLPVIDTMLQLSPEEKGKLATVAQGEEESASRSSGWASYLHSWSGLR", "UniProt P61294": "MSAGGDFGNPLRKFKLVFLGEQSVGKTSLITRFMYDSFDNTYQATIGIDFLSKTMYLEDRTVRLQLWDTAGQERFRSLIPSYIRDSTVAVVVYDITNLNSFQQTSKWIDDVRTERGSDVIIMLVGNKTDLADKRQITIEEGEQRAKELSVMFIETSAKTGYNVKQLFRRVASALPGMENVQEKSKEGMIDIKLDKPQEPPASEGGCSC", "UniProt P59279": "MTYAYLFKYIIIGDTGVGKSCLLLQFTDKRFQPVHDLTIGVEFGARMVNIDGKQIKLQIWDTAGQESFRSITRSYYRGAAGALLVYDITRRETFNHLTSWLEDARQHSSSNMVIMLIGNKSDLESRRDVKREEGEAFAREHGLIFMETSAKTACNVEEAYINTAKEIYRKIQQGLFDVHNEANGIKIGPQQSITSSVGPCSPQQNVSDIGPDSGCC"},
  "source": "paper PMC9666523",
  "key": {"GCC2": {"molecular_target": "GCC2 (UniProt Q8CHG3)", "experiment": "co-IP; co-IP of GCC2 with Rabs and with STING in HEK293T cells (Supplementary Fig. 7b-d); bait, tags and antibodies not shown; lysis in 20 mM Tris-HCl pH 7.4, 0.5% Nonidet-P40, 150 mM NaCl"}, "FLAG-Sting": {"molecular_target": "T1, FLAG-Sting (UniProt Q3TBT3)", "T1 sequence": "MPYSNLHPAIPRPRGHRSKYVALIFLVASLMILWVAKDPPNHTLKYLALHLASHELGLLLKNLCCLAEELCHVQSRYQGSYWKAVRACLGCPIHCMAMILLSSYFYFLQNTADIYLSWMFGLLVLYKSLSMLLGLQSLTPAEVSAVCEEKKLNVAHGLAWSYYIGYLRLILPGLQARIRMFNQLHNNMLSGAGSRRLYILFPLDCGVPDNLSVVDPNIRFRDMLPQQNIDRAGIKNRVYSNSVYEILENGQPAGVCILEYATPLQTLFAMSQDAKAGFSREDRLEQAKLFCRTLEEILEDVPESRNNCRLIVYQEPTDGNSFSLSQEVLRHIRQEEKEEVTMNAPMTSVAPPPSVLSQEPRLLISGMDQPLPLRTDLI", "experiment": "co-IP; HEK293T cells transfected with FLAG-Sting and HA-Rab GTPases, harvested 24 h later; lysis in 20 mM Tris-HCl pH 7.4, 0.5% Nonidet-P40, 150 mM NaCl; IP with the FLAG antibody on Protein G dynabeads overnight at 4 °C; western blot"}},
  "note": "These are yes or no findings as the source states them, for the method shown. Binding seen in cells or lysates may run through a third protein. Some results given as binding are weak or reduced against the parent protein; the word gives no strength. For some of these results: Tags and fused reporters may be left off the sequences shown.",
  "data": [
    {"substance": "HA-Rab6b (from UniProt P61294 1-208)", "values": [
      {"measurement": "binding", "setting": "GCC2", "result": "binds"},
      {"measurement": "binding", "setting": "FLAG-Sting", "result": "binds"}
    ]},
    {"substance": "HA-Rab2b (from UniProt P59279 1-216)", "values": [
      {"measurement": "binding", "setting": "GCC2", "result": "binds"},
      {"measurement": "binding", "setting": "FLAG-Sting", "result": "binds"}
    ]}
  ]
}
